# Data as given in PubChem BioAssay AID504784 (Drosophila RNAi Screening Center, 2011)
# Purpose: 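Genome-wide knock-down for genes giving too much or too little stored lipid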 (primary screen)
# Cells: Drosophila Kc167 embryonic cells
# Knock-down reagent: long dsRNA against Drosophila genes, about 250 ng dsRNA per well
# Duration: 4 days
# Treatment: cells fed 400 µM oleic acid bound to BSA
# Measured: 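Microscope images give a droplet-to-nucleus area ratio, taken as log and converted to a screen-wide B-score; higher values mean greater lipid storage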
# Reading the numbers: droplet/nuclear area B-score: higher = more stored lipid (overstorage)
# The screen tested about 17,000 reagents; shown is an unselected part of those that have a named target and a result. 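Each column is one replicate's B-score; the combined score over replicates was not deposited, so single values may mislead.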
gene knocked down,amplicon,"droplet/nuclear area B-score, replicate 1","droplet/nuclear area B-score, replicate 2","droplet/nuclear area B-score, replicate 3"
porin,DRSC03594,0.801,-0.312,
kibra,DRSC14533,-1.17,0.609,
kibra,DRSC16257,-1.69,0.0635,
kibra,DRSC23283,-0.0395,-0.0445,
Chd64,DRSC08649,0.0823,1.57,
CG7332,DRSC20038,1.56,-0.0653,
NetA,DRSC20261,-0.299,1.11,
beat-Vc,DRSC12927,1.47,1.08,
beat-Vc,DRSC14849,0.117,-0.36,
Prp39,DRSC15133,0.568,,
CG30110,DRSC05686,-0.101,1.19,
Vha26,DRSC12371,0.0272,-1.06,
CG5404,DRSC15793,-0.0743,-0.338,-0.09
Polr1B,DRSC00780,-0.672,-1.43,
Cyt-c-d,DRSC03309,-0.23,-0.267,
e(y)2b,DRSC12556,0.715,-1.01,
NSD,DRSC15691,0.19,-0.487,
cal1,DRSC15725,1.19,3.12,
CG17982,DRSC18143,-0.492,0.379,
CG9899,DRSC04597,-0.365,-1.72,
CG18754,DRSC15387,-1.39,0.74,
Cad96Cb,DRSC14243,-0.0627,-0.507,
Cad96Cb,DRSC14665,-1.95,-0.355,
CG7342,DRSC16230,1.05,-4.4,
CG32259,DRSC08082,0.00715,-0.423,
ClC-c,DRSC10499,-0.00166,-0.521,-0.758
ND-MLRQ,DRSC11913,3.32,-0.0462,
Mmp2,DRSC06698,1.4,-1.28,
Mmp2,DRSC22024,-0.129,-0.888,
CG12194,DRSC00345,0.358,0.256,
Sox15,DRSC07555,0.875,-0.0757,

Targets listed so far whose gene name starts with P or p:
gene knocked down,amplicon,"droplet/nuclear area B-score, replicate 1","droplet/nuclear area B-score, replicate 2","droplet/nuclear area B-score, replicate 3"
porin,DRSC03594,0.801,-0.312,
Prp39,DRSC15133,0.568,,
Polr1B,DRSC00780,-0.672,-1.43,

Next entries follow:
gene knocked down,amplicon,"droplet/nuclear area B-score, replicate 1","droplet/nuclear area B-score, replicate 2","droplet/nuclear area B-score, replicate 3"
CG6873,DRSC20014,3.77,3.35,
Spc105R,DRSC11663,0.707,0.687,
CG13358,DRSC18534,0.536,1.61,
hng1,DRSC04555,-0.94,-1.73,
CG32276,DRSC08027,-0.549,-1.14,
CG14434,DRSC17927,-0.452,0.0948,
CG33543,DRSC00384,2.01,0.0073,
CG33543,DRSC00385,-0.0298,-0.0297,
Tbc1d22,DRSC15867,0.679,0.079,
CG7214,DRSC03028,0.651,0.565,0.96
CG7214,DRSC21869,1.47,-2.02,
Dbp45A,DRSC07395,3.5,2.58,
Septin4,DRSC20205,-1.76,0.379,
CG17816,DRSC15277,-1.57,-0.0393,0.0716
rk,DRSC03602,0.589,0.331,
CG17839,DRSC10290,1.44,-0.434,
CG17839,DRSC10291,-2.15,0.533,
Syx13,DRSC09836,-0.513,-0.408,
Sprn,DRSC10132,0.603,-0.0838,
CG13218,DRSC06340,-1.06,-0.123,
MP1,DRSC12124,0.815,-1.66,0.957
tapas,DRSC05950,-0.907,0.652,
FRG1,DRSC10648,-0.517,-1.33,
CG10164,DRSC14197,1.2,-0.425,
CG33269,DRSC10585,1.19,0.335,
CG2061,DRSC19348,-0.999,-0.582,0.3
halo,DRSC00705,-1.97,-1.46,
GNBP1,DRSC11169,-0.615,0.91,
GNBP1,DRSC21836,3.07,-2.02,
CG15213,DRSC10213,1.25,0.844,
CG12464,DRSC06156,-0.626,-0.805,
RpL23A,DRSC08694,2.09,-0.0222,
RpL23A,DRSC22035,-0.0304,-0.102,
MED19,DRSC10516,-3.14,-3.42,-1.4
Kebab,DRSC00827,-1.41,-0.0212,
TwdlS,DRSC14737,-1.94,0.274,
CG16743,DRSC02514,0.741,-3.21,
Jheh1,DRSC06529,-0.0711,,
CkIIbeta,DRSC20230,-3.56,-1.4,-1.68
OS9,DRSC02700,0.238,1.11,
Prp40,DRSC00612,-0.667,-2.6,
CG32733 (retired record),DRSC17481,2.25,0.63,
SCCRO,DRSC10844,3.92,0.108,
Jhbp11,DRSC15183,-2.1,-0.75,
geko,DRSC10044,0.684,0.519,
geko,DRSC10045,0.017,0.206,
Dmtn,DRSC12513,-0.162,-2.22,
brv2,DRSC10226,-0.314,-0.552,
Arpc2,DRSC02113,0.268,0.692,
PGRP-SC2,DRSC06481,1.09,-1.45,
NdufV3,DRSC19423,0.59,-1.29,1.28
Obp22a,DRSC00088,-0.292,1.47,
